This passage reports cell number change and AC50 results from PubChem BioAssay AID2685 (National Center for Advancing Translational Sciences (NCATS), 2010).

A short description of this test: qHTS Assay for Lipid Storage Modulators in Drosophila S3 Cells.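 As to cell number change: cells counted by Cell Tracker Red CMTPX staining in the red channel.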 The note with it: BODIPY lipid droplet fluorescence, 18-24 h; for cell number change: measured here: cell count max response, cells fed with added oleic acid. The text has this: NIH Molecular Libraries Probe Production Centers Network [MLPCN] NIH Chemical Genomics Center [NCGC] MLPCN Grant: 1 R03 MH085686-01 Assay Submitter (PI): Beller, Mathias; Max-Planck-Institut fur Biophysikalische Chemie NCGC Assay Overview: Storing lipids as a reservoir for energy or the anabolism of elementary metabolites is a common feature of probably all cells and is conserved from bacteria to humans. The universal cellular lipid storage organelle is the so-called lipid storage droplet (LD). Although ubiquitous, LDs share a simple structure composed of a hydrophobic core that harbors the storage lipids, which is shielded by a droplet-specific phospholipid monolayer to which proteins are attached. The current model of LD biogenesis involves an incorporation of the lipid core into the membrane leaflets of the endoplasmic reticulum (ER) followed by a subsequent budding-like maturation of a LD, which ultimately pinches off. Once released, LD volume can increase by localized lipogenesis or fusion of existing droplet. Storage lipids are re-mobilized enzymatically by lipase activity. Lipase regulation in the adipocyte is heavily studied and involves multiple components including catecholamine signaling, the LD-associated proteins Perilipin and comparative gene identification (CGI-58) and at least two lipases named hormone sensitive lipase (HSL) and adipocyte triglyceride lipase (ATGL). LD regulation outside of the adipocyte is poorly understood and only few components are known. However, there is an urgent need to learn more about ectopic fat depots as mislocalized storage of lipids, for example in the liver or muscle, is an eminent health problem associated with insulin resistance or the metabolic syndrome. We developed a laser-scanning cytometer assay to enable 1,536-well screening and combined the results of the small molecules screen with an RNAi database based on lipid storage.
Triacsin C (Sigma-Aldrich T-4540), an inhibitor of long-chain fatty acyl CoA synthetase that blocks synthesis of triglycerides, was used as a positive control for lipid under-storage. A total of 23 nL of compound solution of different concentrations were transferred to the assay plates using a Kalypsys pin tool equipped with a 1,536-pin array containing 10-nL slotted pins (FP1S10, 0.457-mm diameter, 50.8 mm long; V&P Scientific). One microliter of oleic acid (400 uM) was added, and the plate was lidded with stainless steel rubber gasket lined lids containing pinholes. […] Fluorescence was detected by excitation of the fluorophores with a 488-nm laser on an Acumen Explorer (TTP Lab Tech). The total intensity in channel 2 (500-530 nm) reflected lipid droplet accumulation. Cells were detected using channel 3 (575-640 nm) with 5-um width and 100-um depth filters. The ratio of the number of objects in PMT channel 2 over the number of objects in PMT channel 3 was also calculated. Percent activity was computed relative to an internal control (100% inhibited lipid droplet deposition due to the presence of 20 uM Triacsin C), which was added to 32 wells/plate.

The mark [1] stands for this setting: measured here: cell number channel AC50, cells fed with added oleic acid.
Where [2] appears, read: measured here: lipid fluorescence (Fed channel) AC50, cells fed with added oleic acid.

The other results are listed elsewhere or left out. The main result of the screen is listed elsewhere. These columns were measured beside it and carry no call. The list favours compounds with an active or inconclusive main result. The note in brackets gives the kind of curve behind each potency; many fits are weak.

As usually defined, the AC50 is the concentration giving half of the maximal activity seen. Low readings indicate greater potency, high ones weaker potency. On to `Fc1ccc(Nc2nc(N/N=C/c3ccco3)nc(N3CCCCC3)n2)cc1`, for which the cell number change amounted to 97.5%. The AC50 under setting [1] was 2.06 µM [rising, partial curve]. Besides, under setting [2], the AC50 was 2.06 µM [rising, partial curve, poor fit].
Regarding `Cn1c(=O)c2c(nc(N/N=C3\CCCc4ccccc43)n2Cc2ccc(F)cc2)n(C)c1=O`, the cell number change is -50%. Moreover, the AC50 under setting [1] is 23.1 µM [falling, single point]. For the same compound, the AC50 under setting [2] is 16.4 µM [rising, single point].
Regarding `O=C(CCNC(=O)c1ccc(Br)cc1)NCc1cccnc1`, under setting [2], the AC50 is 0.58 µM [rising, single point].
Consider `CC1CCc2sc(C(=O)OCC(=O)NCc3ccc(F)cc3)cc2C1` (stereo not given), for which the cell number change is -13.7%. Moreover, the AC50 under setting [2] is 29.1 µM [falling, single point].
Regarding `O=C(NNC(=O)c1sccc1-n1cccc1)c1ccccc1`, the AC50 under setting [2] was 29.1 µM [falling, single point].
As to `CCOC(=O)/C(C#N)=C1/C=CNC(=O)N1`, the cell number change is 35.7%. The AC50 under setting [1] was 0.461 µM [rising, full curve]. For the same compound, under setting [2], the AC50 was 0.517 µM [rising, full curve, poor fit].
As for `COc1cccc(C2/C(=C(\O)c3ccc4c(c3)OCCO4)C(=O)C(=O)N2CCCn2ccnc2)c1` (stereo not given), the cell number change is 39.9%. Further, the AC50 under setting [1] was 0.58 µM [rising, full curve, poor fit].
Consider `CCCCC(=O)Nc1nnc(CCOC)s1`, for which the cell number change is 22.4%. Moreover, under setting [1], the AC50 was 0.651 µM [falling, single point]. In addition, the AC50 under setting [2] is 0.82 µM [falling, partial curve, poor fit].
For `CC(C)NC(=O)COc1ccc(S(=O)(=O)N2CCCC2)cc1`, the cell number change was -11.9%.
Turning to `COc1ccc(NS(=O)(=O)c2ccc(NC(=O)C3CC3)cc2)cc1`, the cell number change is 4.69%.
Same read-out and setting: then `Cc1ccc(C)n1-c1cccc(N)c1`, with 1.45%.
`O=C(CSc1nnc(CNC(=O)c2cccc(C(F)(F)F)c2)o1)NC1CCCC1`: the cell number change is 33.1%. Also, the AC50 under setting [1] is 16.4 µM [rising, partial curve, poor fit].
In the case of `COc1ccc(NS(=O)(=O)c2ccc3c(c2)Cc2ccccc2-3)cn1`, the cell number change is 33.8%. In addition, the AC50 under setting [1] was 5.17 µM [rising, partial curve].
In the case of `Cc1cc(C(=O)CN2c3cccc4cccc(c34)S2(=O)=O)c(C)n1C`, the cell number change was determined as 18.3%. Also, the AC50 under setting [2] is 0.164 µM [falling, full curve, poor fit].
Take `Cc1ccc(C)c(N2CCN(S(=O)(=O)CC34CCC(CC3=O)C4(C)C)CC2)c1` (stereo not given): the cell number change was -8.2%. Also, under setting [2], the AC50 is 0.411 µM [rising, full curve, poor fit].
In the case of `COc1cc2c3nnc(-c4ccccc4)c-3cn(Cc3ccccc3F)c2cc1OC`, the cell number change turned out to be 14.2%. Also, the AC50 under setting [2] was 3.66 µM [falling, single point].
Take `CCOc1ccc(C(=O)NC2CCN(C(=S)Nc3ccccc3C)CC2)cc1`: the cell number change stood at 21.9%. In addition, under setting [2], the AC50 was 0.092 µM [falling, full curve, poor fit].
`Oc1ccc(Br)cc1/C=N/n1cnc2ccccc21`: the cell number change was -43%. In addition, the AC50 under setting [1] was 32.6 µM [falling, single point]. Under setting [2], the AC50 was 20.6 µM [falling, single point].
As for `O=C(CC1C(=O)Nc2ccccc2N1CC(=O)N1CCCC1)Nc1ccc(Br)cc1` (stereo not given), the cell number change is -11.2%. In addition, the AC50 under setting [2] is 7.31 µM [rising, partial curve].
With `O=C(NC1CCCCC1)c1nn2c(C(F)(F)F)cc(-c3ccco3)nc2c1Br`, the cell number change was -24.9%. For the same compound, the AC50 under setting [1] is 0.13 µM [falling, full curve, poor fit]. Also, under setting [2], the AC50 is 14.6 µM [falling, partial curve].
As to `Cc1c(Br)c(C(=O)N2CCc3ccccc32)nn1C`, the cell number change amounted to 51.6%. Also, the AC50 under setting [1] is 11.6 µM [rising, partial curve, poor fit]. Besides, under setting [2], the AC50 is 0.411 µM [rising, full curve, poor fit].
As to `CC(=O)Nc1sc(NC(=O)c2ccc(C)cc2)nc1-c1cccs1`, the cell number change is -30.7%. Also, the AC50 under setting [1] is 18.4 µM [falling, single point]. For the same compound, the AC50 under setting [2] was 29.1 µM [falling, single point].
`Cc1noc(C)c1CSCC(=O)N1CCN(c2ccc([N+](=O)[O-])cc2)CC1`: the cell number change came to 55.7%. The AC50 under setting [1] is 2.31 µM [rising, full curve]. The AC50 under setting [2] was 0.103 µM [falling, full curve, poor fit].
For `Cc1ccc(S(=O)(=O)N(C)c2ccc(OCC(=O)Nc3cccc(-n4cnnn4)c3C)cc2)cc1`, the cell number change was found to be 25%. The AC50 under setting [2] was 32.6 µM [rising, single point].
With `O=C(COC(=O)CNC(=O)c1cccc([N+](=O)[O-])c1)Nc1nc2ccccc2s1`, the cell number change turned out to be 1.38%. For the same compound, the AC50 under setting [2] is 29.1 µM [rising, single point].
For the compound `COc1ccc(CCNC(=O)CSc2nc(-c3ccco3)cc(C(F)(F)F)n2)cc1`, the cell number change is -9.53%. Also, the AC50 under setting [2] is 6.51 µM [rising, single point].
Regarding `C=CCn1c(SCC(=O)Nc2sccc2C#N)nc2sc(C)c(C)c2c1=O`, the cell number change is 4.27%. For the same compound, the AC50 under setting [2] was 0.206 µM [rising, full curve].
For `O=CN1CCN(C(=O)CN2C(=O)c3ccccc3C2=O)CC1`, the cell number change was -7.99%. In addition, under setting [2], the concentration at half-maximal activity (AC50) is 25.9 µM [falling, single point].
